Data taken from PMC5014551.
These are yes or no findings as the source states them, for the method shown. For some of these results: Binding seen in cells or lysates may run through a third protein. For some of these results: Binding calls can cover weak binding; strength is not graded here. For some of these results: Where a sequence is shown, tags or fusion partners need not be part of it.

B1: Bol3-Strep (protein, UniProt P39724 1-118)
chain: MKLPQTMLRSISVKHVRWPRILTGSKLWYSTQMAMTPEEKMITDKLQQELEPEVCKVQDVSGGCGSMFAINITSKKFNGLSLIKQHQLVNRILRDDISRWHGLQLTTKKSTGKGPASS
B2: Aco1 (protein, UniProt P19414 17-778)
chain: ATVSNLTRDSKVNQNLLEDHSFINYKQNVETLDIVRKRLNRPFTYAEKILYGHLDDPHGQDIQRGVSYLKLRPDRVACQDATAQMAILQFMSAGLPQVAKPVTVHCDHLIQAQVGGEKDLKRAIDLNKEVYDFLASATAKYNMGFWKPGSGIIHQIVLENYAFPGALIIGTDSHTPNAGGLGQLAIGVGGADAVDVMAGRPWELKAPKILGVKLTGKMNGWTSPKDIILKLAGITTVKGGTGKIVEYFGDGVDTFSATGMGTICNMGAEIGATTSVFPFNKSMIEYLEATGRGKIADFAKLYHKDLLSADKDAEYDEVVEIDLNTLEPYINGPFTPDLATPVSKMKEVAVANNWPLDVRVGLIGSCTNSSYEDMSRSASIVKDAAAHGLKSKTIFTVTPGSEQIRATIERDGQLETFKEFGGIVLANACGPCIGQWDRRDIKKGDKNTIVSSYNRNFTSRNDGNPQTHAFVASPELVTAFAIAGDLRFNPLTDKLKDKDGNEFMLKPPHGDGLPQRGYDAGENTYQAPPADRSTVEVKVSPTSDRLQLLKPFKPWDGKDAKDMPILIKAVGKTTTDHISMAGPWLKYRGHLENISNNYMIGAINAENKKANCVKNVYTGEYKGVPDTARDYRDQGIKWVVIGDENFGEGSSREHAALEPRFLGGFAIITKSFARIHETNLKKQGLLPLNFKNPADYDKINPDDRIDILGLAELAPGKPVTMRVHPKNGKPWDAVLTHTFNDEQIEWFKYGSALNKIKADEKK
B3: Lys4 chromosomally tagged with GFP (protein, UniProt P49367 18-693)
chain: LKGQNLTEKIVQSYAVNLPEGKVVHSGDYVSIKPAHCMSHDNSWPVALKFMGLGATKIKNPSQIVTTLDHDIQNKSEKNLTKYKNIENFAKKHHIDHYPAGRGIGHQIMIEEGYAFPLNMTVASDSHSNTYGGLGSLGTPIVRTDAAAIWATGQTWWQIPPVAQVELKGQLPQGVSGKDIIVALCGLFNNDQVLNHAIEFTGDSLNALPIDHRLTIANMTTEWGALSGLFPVDKTLIDWYKNRLQKLGTNNHPRINPKTIRALEEKAKIPKADKDAHYAKKLIIDLATLTHYVSGPNSVKVSNTVQDLSQQDIKINKAYLVSCTNSRLSDLQSAADVVCPTGDLNKVNKVAPGVEFYVAAASSEIEADARKSGAWEKLLKAGCIPLPSGCGPCIGLGAGLLEPGEVGISATNRNFKGRMGSKDALAYLASPAVVAASAVLGKISSPAEVLSTSEIPFSGVKTEIIENPVVEEEVNAQTEAPKQSVEILEGFPREFSGELVLCDADNINTDGIYPGKYTYQDDVPKEKMAQVCMENYDAEFRTKVHPGDIVVSGFNFGTGSSREQAATALLAKGINLVVSGSFGNIFSRNSINNALLTLEIPALIKKLREKYQGAPKELTRRTGWFLKWDVADAKVVVTEGSLDGPVILEQKVGELGKNLQEIIVKGGLEGWVKSQL
B4: Aco2-HA (protein, UniProt P39533 15-789)
chain: ATHANMFPSVSKNFQTKVPPYAKLLTNLDKIKQITNNAPLTLAEKILYSHLCDPEESITSSDLSTIRGNKYLKLNPDRVAMQDASAQMALLQFMTTGLNQTSVPASIHCDHLIVGKDGETKDLPSSIATNQEVFDFLESCAKRYGIQFWGPGSGIIHQIVLENFSAPGLMMLGTDSHTPNAGGLGAIAIGVGGADAVDALTGTPWELKAPKILGVKLTGKLNGWSTPKDVITKLAGLLTVRGGTGYIVEYFGEGVSTLSCTGMATICNMGAEIGATTSTFPYQEAHKRYLQATNRAEVAEAADVALNKFNFLRADKDAQYDKVIEIDLSAIEPHVNGPFTPDLSTPISQYAEKSLKENWPQKVSAGLIGSCTNSSYQDMSRVVDLVKQASKAGLKPRIPFFVTPGSEQIRATLERDGIIDIFQENGAKVLANACGPCIGQWNREDVSKTSKETNTIFTSFNRNFRARNDGNRNTMNFLTSPEIVTAMSYSGDAQFNPLTDSIKLPNGKDFKFQPPKGDELPKRGFEHGRDKFYPEMDPKPDSNVEIKVDPNSDRLQLLEPFKPWNGKELKTNVLLKVEGKCTTDHISAAGVWLKYKGHLENISYNTLIGAQNKETGEVNKAYDLDGTEYDIPGLMMKWKSDGRPWTVIAEHNYGEGSAREHAALSPRFLGGEILLVKSFARIHETNLKKQGVLPLTFANESDYDKISSGDVLETLNLVDMIAKDGNNGGEIDVKITKPNGESFTIKAKHTMSKDQIDFFKAGSAINYIGNIRRNE
B5: Isa1 (protein, UniProt Q07821 1-250)
chain: MINTGRSRNSVLLAHRFLSTGGFWRGGTNGTMSRTINNVNPFKLKFIPKTVPAAADSVSPDSQRPGKKPFKFIVSNQSKSSKASKSPKWSSYAFPSRETIKSHEEAIKKQNKAIDEQIAAAVSKNDCSCTEPPKKRKRKLRPRKALITLSPKAIKHLRALLAQPEPKLIRVSARNRGCSGLTYDLQYITEPGKFDEVVEQDGVKIVIDSKALFSIIGSEMDWIDDKLASKFVFKNPNSKGTCGCGESFMV
B6: WT Aco1 (expressed in the nfu1 deletion background, Figure 5E) (protein, UniProt P19414 17-778)
chain: B2 chain
B7: Sdh2 (protein, UniProt P21801 21-266)
chain: TATTAAATHTPRLKTFKVYRWNPDEPSAKPHLQSYQVDLNDCGPMVLDALLKIKDEQDSTLTFRRSCREGICGSCAMNIGGRNTLACICKIDQNESKQLKIYPLPHMFIVKDLVPDLTNFYQQYKSIQPYLQRSSFPKDGTEVLQSIEDRKKLDGLYECILCACCSTSCPSYWWNQEQYLGPAVLMQAYRWLIDSRDQATKTRKAMLNNSMSLYRCHTIMNCTRTCPKGLNPGLAIAEIKKSLAFA
B8: Rip1 (protein, UniProt P08067 31-215)
chain: KSTYRTPNFDDVLKENNDADKGRSYAYFMVGAMGLLSSAGAKSTVETFISSMTATADVLAMAKVEVNLAAIPLGKNVVVKWQGKPVFIRHRTPHEIQEANSVDMSALKDPQTDADRVKDPQWLIMLGICTHLGCVPIGEAGDFGGWFCPCHGSHYDISGRIRKGPAPLNLEIPAYEFDGDKVIVG
B9: Lys4-HA (protein, UniProt P49367 18-693)
chain: B3 chain
B10: Isa2 (protein, UniProt Q12425 1-185)
chain: MQAKLLFTRLNFRRPSTTLRQFPLTCFLFHSKAFYSDLVTKEPLITPKRIINKTPGLNLSISERASNRLAEIYRNSKENLRISVESGGCHGFQYNLTLEPATKPDIKNDVKDKEFSDDLDDDDSKDIIYVLPEDKGRVIIDSKSLNILNNTTLTYTNELIGSSFKIINGSLKSSCGCGSSFDIEN

Target: Nfu1-Strep (S. cerevisiae)
Assay: SEC; mitochondrial lysates (sonication, 50 mM NaPO4, 150 mM NaCl, pH 7.0) of Nfu1-Strep or Bol3-Strep cells chromatographed separately on HiLoad Superdex 75 PG 16/600; fractions immunoblotted; DTT left the Nfu1 elution unaffected, dithionite attenuated the apparent dimer

binding | Binder
no binding | B1

Target: G^194C Nfu1 mutant, Strep-tagged (S. cerevisiae)
Assay: co-IP; Strep-tag affinity purification: isolated yeast mitochondria solubilized with 0.1% DDM in 50 mM NaH2PO4 pH 8.0, 300 mM NaCl; lysate on Strep-Tactin superflow beads 16 hr at 4°C; eluted with 2.5 mM desthiobiotin; immunoblotting; also done in cells lacking Bol1 and Bol3 and in isa2 deletion cells (enhanced co-purification of clients)

binding | Binder
binds | B2

Target: Nfu1 AxxA mutant, Strep-tagged (S. cerevisiae)
Assay: as above

binding | Binder
no binding | B2
binds | B3

Target: Nfu1-Strep (S. cerevisiae)
Assay: as above

binding | Binder
binds | B4
binds | B5
binds | B6
binds | B2
binds | B7
no binding | B8
binds | B9
binds | B3
binds | B10
